Reference: PubChem BioAssay AID504784 (Drosophila RNAi Screening Center, 2011)
The deposit covers about 17,000 reagents; below is an unselected part of those with a known target gene and a result. 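Each column is one replicate's B-score; the combined score over replicates was not deposited, so single values may mislead.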 No sequences are given here.

- Test: 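Fly genes whose silencing alters how much lipid cells keep in droplets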 (primary screen)
- System: Drosophila Kc167 embryonic cells
- Reagent: long dsRNA against Drosophila genes, about 250 ng dsRNA per well
- Time to read-out: 4 days
- Challenge: cells fed 400 µM oleic acid bound to BSA
- Measured: 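Microscope images give a droplet-to-nucleus area ratio, taken as log and converted to a screen-wide B-score; higher values mean greater lipid storage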
- Reading the numbers: droplet/nuclear area B-score: higher = more stored lipid (overstorage)

The opening 6 records as a preview:
target gene,DRSC id,"droplet/nuclear area B-score, replicate 1","droplet/nuclear area B-score, replicate 2","droplet/nuclear area B-score, replicate 3"
CG1688,DRSC05934,-1.95,-1.97,
CG1688,DRSC23207,-1.01,0.25,
eIF3f1 (eukaryotic translation initiation factor 3 subunit f1),DRSC12328,3.13,3.21,
BthD (BthD selenoprotein),DRSC19395,1.08,1.02,-0.312
AspRS (Aspartyl-tRNA synthetase),DRSC05914,-0.933,-0.107,
loh (lonely heart),DRSC01122,-0.674,0.192,

The list itself, repeating the preview:
target gene,DRSC id,"droplet/nuclear area B-score, replicate 1","droplet/nuclear area B-score, replicate 2","droplet/nuclear area B-score, replicate 3"
CG1688,DRSC05934,-1.95,-1.97,
CG1688,DRSC23207,-1.01,0.25,
eIF3f1 (eukaryotic translation initiation factor 3 subunit f1),DRSC12328,3.13,3.21,
BthD (BthD selenoprotein),DRSC19395,1.08,1.02,-0.312
AspRS (Aspartyl-tRNA synthetase),DRSC05914,-0.933,-0.107,
loh (lonely heart),DRSC01122,-0.674,0.192,
loh (lonely heart),DRSC02943,-0.067,-0.91,
CG11815,DRSC08209,0.271,1.57,
CG7714,DRSC16300,0.00245,-0.483,
CG32846,DRSC08012,-1.16,0.0622,
CG14380,DRSC14840,-1.49,-1.06,
5-HT1B (5-hydroxytryptamine (serotonin) receptor 1B),DRSC05031,-2.71,2.61,
5-HT1B (5-hydroxytryptamine (serotonin) receptor 1B),DRSC05769,-2.08,-2.47,
CG8001,DRSC08611,1.09,-0.13,
CG42260,DRSC03953,2.41,0.324,
CG42260,DRSC04172,-0.236,-0.144,
CG42260,DRSC04385,0.509,-0.643,
CG30323,DRSC07656,0.75,-0.00852,
BRWD3,DRSC15369,-1.08,0.153,
BRWD3,DRSC16032,1.17,-1.07,
su(Hw) (suppressor of Hairy wing),DRSC17074,-0.401,-7.3,
CG32176,DRSC10057,-0.872,-1.28,
CG32176,DRSC10058,0.968,2.89,
CG17738,DRSC15257,-0.00492,-0.556,
Aven (Apoptosis and caspase activation inhibitor),DRSC19693,0.21,-0.902,-0.607
CG12024,DRSC08229,-0.651,1.78,
CG4025,DRSC18523,-0.0419,0.96,
Agpat2 (1-Acylglycerol-3-phosphate O-acyltransferase 2),DRSC03532,-1.56,-0.367,
GluProRS (Glutamyl-prolyl-tRNA synthetase),DRSC14095,0.145,2.16,
CG4956,DRSC15683,-1.13,-0.622,
Oamb (Octopamine receptor in mushroom bodies),DRSC13433,-1.1,0.206,
Oamb (Octopamine receptor in mushroom bodies),DRSC15120,-0.387,-1.2,
Oamb (Octopamine receptor in mushroom bodies),DRSC16763,-0.395,-1.83,
Sh (Shaker),DRSC19214,-4.55,-2.85,
Sh (Shaker),DRSC19220,-0.391,-0.12,
Sh (Shaker),DRSC19785,0.255,0.515,
Sh (Shaker),DRSC20055,0.976,-0.255,
Sh (Shaker),DRSC22567,0.346,-1.18,
side-VI (sidestep VI),DRSC14920,-1.52,-1.07,
side-VI (sidestep VI),DRSC15624,2.25,2.57,
side-VI (sidestep VI),DRSC23088,0.632,3.68,
HP1c (Heterochromatin Protein 1c),DRSC16166,0.233,-0.254,-1.75
alpha-Catr (alpha-catenin related),DRSC04669,-0.204,-0.373,
CG11878,DRSC14422,0.247,-0.658,
PNKP (Polynucleotide kinase 3'-phosphatase),DRSC16512,0.937,-3.14,
tsr (twinstar),DRSC04718,2.02,2.85,
mor (moira),DRSC15378,1.53,1.86,
CG33557,DRSC17854,-1.85,-2.56,-0.253
CG3916,DRSC15520,-0.0439,0.39,
CatB (Catalase B),DRSC03194,2.27,0.797,
CG16854,DRSC02536,0.151,0.155,
mr (morula),DRSC04332,0.279,-0.102,
mr (morula),DRSC22856,0.306,0.109,
CG17572,DRSC02629,-0.0865,-0.94,
ZC3H3,DRSC10696,1.53,2.71,
intr (intrepid),DRSC14528,-1.61,,
